This test has as its target Valosin-containing protein (VCP), exogenous, in MHCC-LM3 cells (UniProt P55072). As to the kind of experiment: affinity purification with mass spectrometry; VCP immunoprecipitated from MHCC-LM3 cells treated with exogenous VCP; SDS-PAGE, Coomassie staining, bands cut and analysed by LC-ESI-LTQ-Orbitrap MS.

Amino acid sequences for entries named in this document (tags omitted).
UniProt P09429: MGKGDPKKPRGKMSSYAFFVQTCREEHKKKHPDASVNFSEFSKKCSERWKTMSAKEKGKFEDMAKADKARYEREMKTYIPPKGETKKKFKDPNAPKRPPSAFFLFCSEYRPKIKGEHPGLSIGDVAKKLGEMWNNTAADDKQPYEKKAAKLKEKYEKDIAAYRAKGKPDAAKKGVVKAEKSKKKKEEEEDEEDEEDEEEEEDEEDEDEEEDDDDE

No constants are given. Whether binding was seen depends on the method and setting. Binding seen in cells or lysates may run through a third protein. A yes stands for co-enrichment or nearness to the bait. Other partners may have been found.

Consider “High-mobility group box 1 (HMGB1), endogenous (from UniProt P09429 1-215)”, for which the binding entry is reported as “binds”.

The values are drawn from article PMC9102726.
